According to PubChem BioAssay AID2685 (National Center for Advancing Translational Sciences (NCATS), 2010):
This is one part of the list. These are further read-outs of the screen, such as a control signal, another cell line or another target. No call is given for them. The list favours compounds with an active or inconclusive main result. The note in brackets gives the kind of curve behind each potency; many fits are weak.

Assay: qHTS Assay for Lipid Storage Modulators in Drosophila S3 Cells;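 as to cell number change: cells counted by Cell Tracker Red CMTPX staining in the red channel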
Settings: BODIPY lipid droplet fluorescence, 18-24 h; for cell number change: measured here: cell count max response, cells fed with added oleic acid
How it was run: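 Laser-scanning cytometry quantifies lipid droplet accumulation (500–530 nm total intensity; droplet/cell object ratio) in oleic acid-fed (400 uM added) Drosophila S3 cells treated with a concentration series. 20 uM Triacsin C defined 100% inhibition.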

[1] = measured here: lipid fluorescence (Fed channel) AC50, cells fed with added oleic acid
[2] = measured here: cell number channel AC50, cells fed with added oleic acid

| SMILES | cell number change | AC50 [1] | AC50 [2] |
| --- | --- | --- | --- |
| COc1ccc(/C=C/C(=O)N(CC(C)C)CC(C)C)cc1Br | -16.5% |  |  |
| CCOC(=O)N1CCN(S(=O)(=O)c2ccc(C(=O)N(CCN(C)C)c3nc4ccc(CC)cc4s3)cc2)CC1 | 26.5% | 0.259 µM [rising, partial curve, poor fit] |  |
| COc1cc(C)ccc1OCc1cc(C(=O)N2CCC(c3ccc(F)cc3)C2)no1 (configuration not stated) | -8.96% | 9.2 µM [rising, partial curve] |  |
| O=C(Nc1ccccc1N1CCCCC1)c1ccc(-c2ccc(Cl)cc2)o1 |  | 8.2 µM [falling, partial curve] |  |
| Cc1ccc(CNC(=O)CCNC(=O)c2ccc(Br)o2)cc1 | -22.9% | 0.651 µM [falling, full curve, poor fit] | 0.146 µM [falling, full curve, poor fit] |
| CN(CCCOc1ccccc1Br)Cc1ccccc1 | -27.6% | 3.66 µM [falling, single point] |  |
| CCCCCCCCOC(=O)C1=C(C)Nc2nnnn2C1c1cccs1 (configuration not stated) | -89.9% | 29.1 µM [falling, single point] | 23.1 µM [falling, single point] |
| CSc1nnc2ccc(-c3ccccn3)nn12 | -31.7% |  | 8.2 µM [falling, partial curve, poor fit] |
| CCCCC(CC)CNC(=O)c1cccs1 (configuration not stated) | -47.9% |  | 23.1 µM [falling, single point] |
| COCCOC(=O)c1c(C)nc(SCC(=O)Nc2ccc(OC)cc2)c(C#N)c1-c1ccco1 | 2.84% |  |  |
| COc1ccc(C(=O)C2CCN(CC(=O)Nc3cc(C)cc(C)c3)CC2)cc1 | -2.52% | 0.092 µM [rising, partial curve, poor fit] |  |
| Cc1cc(NS(=O)(=O)c2ccc(NC(=O)/C=C/c3ccc(Br)cc3)cc2)no1 | -22.1% | 3.66 µM [rising, full curve] |  |
| CCCCC1CCC(c2nc(-c3ccccn3)no2)CC1 (configuration not stated) | -53.5% | 1.64 µM [falling, full curve, poor fit] | 14.6 µM [falling, partial curve, poor fit] |
| CCOc1ccc(-n2c(C)cc(/C=N\NC(=O)CC(=O)NC3CCCCC3)c2C)cc1 | 13.4% |  | 3.26 µM [rising, single point] |
| CN1CCN(C(=O)CCN2C(=O)/C(=C\c3ccc(Cl)cc3)SC2=S)CC1 | -11.6% |  |  |
| CN1CCN(c2ccc(S(=O)(=O)N3CCCCC3)cc2NC(=O)c2ccc3ccccc3c2)CC1 | -33.6% | 0.206 µM [falling, full curve, poor fit] | 29.1 µM [falling, single point] |
| Cc1ccccc1NC(=O)CN(c1ccc(F)cc1)S(C)(=O)=O | 8% | 0.291 µM [rising, full curve] |  |
| O=C1ON=C(c2ccccc2)/C1=C/c1ccc(-c2ccccc2[N+](=O)[O-])o1 | -36.2% | 29.1 µM [falling, single point] | 0.146 µM [falling, full curve, poor fit] |
| COc1cccc(CCNC(=O)CCc2nnc(-c3ccc4c(c3)OCO4)o2)c1 | -1.77% |  |  |
| CCn1c(Cn2nnc(-c3ccccc3)n2)nnc1SCC(=O)Nc1cccc(C(C)=O)c1 | 23.1% | 1.46 µM [falling, partial curve] |  |
| CC(=O)c1cccc(S(=O)(=O)N2CCCC(c3nc4c(nnn4Cc4ccccc4Cl)c(=O)[nH]3)C2)c1 (configuration not stated) | -2.42% |  |  |
| COc1ccc(C)cc1NC(=O)NC(C)c1ccncc1 (configuration not stated) | 76.1% |  |  |
| Cc1ccccc1OCC(=O)Nc1ccc2c(c1)OCCO2 | 15.8% | 7.31 µM [rising, partial curve] |  |
| Cc1cc(N2CCCCC2)n2nc(C)c(-c3ccccc3)c2n1 | -15.6% | 0.731 µM [rising, single point] |  |
| CC(C)c1cc(NC(=O)c2ccccc2)cc(C(C)C)c1O | -31% |  | 11.6 µM [falling, partial curve] |
| CSc1ccc(CN2CCN(C(=O)c3ccncc3)CC2)cc1 | 14.8% | 0.146 µM [rising, full curve, poor fit] |  |
| Cc1ccc(OCC(=O)NNC(=O)C2CSC3(C)CCC(=O)N23)cc1 (configuration not stated) |  |  | 0.326 µM [rising, single point] |
| COc1cc(/C=C2\SC(=S)N(C(C(=O)O)c3ccccc3)C2=O)ccc1O (configuration not stated) | -98.7% | 0.731 µM [falling, full curve] | 2.91 µM [falling, full curve] |
| CC(=O)c1ccc(S(=O)(=O)N2CCN(CC(=O)Nc3ccc(Cl)c([N+](=O)[O-])c3)CC2)cc1 |  | 18.4 µM [falling, single point] |  |
| O=S(=O)(O)c1cccc2c(N=Nc3ccc(O)c4ncccc34)cccc12 | -19.4% |  | 0.116 µM [falling, full curve, poor fit] |

Arranged by molecular weight (ascending): some entries from above

| SMILES | cell number change | AC50 [1] | AC50 [2] |
| --- | --- | --- | --- |
| COc1ccc(C(=O)C2CCN(CC(=O)Nc3cc(C)cc(C)c3)CC2)cc1 | -2.52% | 0.092 µM [rising, partial curve, poor fit] |  |
| COCCOC(=O)c1c(C)nc(SCC(=O)Nc2ccc(OC)cc2)c(C#N)c1-c1ccco1 | 2.84% |  |  |
| CC(=O)c1cccc(S(=O)(=O)N2CCCC(c3nc4c(nnn4Cc4ccccc4Cl)c(=O)[nH]3)C2)c1 (configuration not stated) | -2.42% |  |  |
